# Some of the results follow.
# Molecular target: T1, OsSMF1 (Oryza sativa, UniProt Q6ZLB0 1-436)
# T1 sequence: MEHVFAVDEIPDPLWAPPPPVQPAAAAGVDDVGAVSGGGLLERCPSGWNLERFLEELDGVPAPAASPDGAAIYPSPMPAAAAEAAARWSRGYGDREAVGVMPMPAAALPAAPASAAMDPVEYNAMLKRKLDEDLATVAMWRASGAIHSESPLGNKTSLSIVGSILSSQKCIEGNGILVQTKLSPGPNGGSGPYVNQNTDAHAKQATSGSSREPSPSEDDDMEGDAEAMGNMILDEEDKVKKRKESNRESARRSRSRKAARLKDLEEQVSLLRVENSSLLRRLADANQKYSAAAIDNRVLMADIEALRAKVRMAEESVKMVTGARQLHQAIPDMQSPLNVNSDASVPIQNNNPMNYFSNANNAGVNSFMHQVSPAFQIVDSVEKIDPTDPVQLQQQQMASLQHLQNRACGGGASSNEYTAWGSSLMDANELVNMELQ
# Experiment: protein-binding microarray (RPBM); PBS, 2% BSA, 51.3 ng/ul salmon testes DNA, 50 uM zinc acetate, 200 nM TF, 25 C, 1 h; high values mean tight binding
# Conditions: protein: recombinant; tags: N-terminal polyhistidine and DsRed monomer fusion (pET32a); chain copies: 2; label: CyDye5-dUTP incorporated in the synthesized complementary strand; 3' TTTTT single-stranded linker to array surface; dsDNA, one strand shown
# Summary of the method: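 Binding signal here means per-feature fluorescence intensity in arbitrary units. The values were read on an Axon 4000B scanner after a custom Agilent array, double-stranded by primer extension with Cy5-dUTP, was incubated with 200 nM protein at 25 °C for 1 h in PBS with 2% BSA, salmon testes DNA and 50 µM zinc acetate, then washed. The proteins were transcription factors with an N-terminal polyhistidine tag and DsRed, expressed in E. coli BL21-CodonPlus and purified on Ni–NTA.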
row,Sequence,binding signal
1,CCTTTATAGATGTGGCCCAGCCTAGTCACGTGGATATTCTCGGAGTCACCTAGTGCAG,10100 fluorescence intensity (a.u.)
2,GCACTTATGACTTTCATGGTCGAAAGAATATGTTTTGATGCGGAGTCACCTAGTGCAG,3290 fluorescence intensity (a.u.)
3,ACACACCATCTACCTAGTTGCAATTTAATTTACTCTCTCCCGGAGTCACCTAGTGCAG,3170 fluorescence intensity (a.u.)
4,TGCCAGCGATGGACAAGCAAGGTGGAGTGGGAGCTGCTGCCGGAGTCACCTAGTGCAG,37800 fluorescence intensity (a.u.)
5,CGGTGGGTCCCACCTCCCTCACCACGCGTCCCCGGCCGATCGGAGTCACCTAGTGCAG,3330 fluorescence intensity (a.u.)
6,ACCACCGCCGCCGCCGTCCCAGACACCAACTCCACCGCATCGGAGTCACCTAGTGCAG,4120 fluorescence intensity (a.u.)
7,TTGCGACCTAGAGTTGAAGGGGATCTGCACACGCGTACCTCGGAGTCACCTAGTGCAG,3710 fluorescence intensity (a.u.)
8,CGCTGACTCGGATGCCATGTCAGATAAACAACCCTCCATACGGAGTCACCTAGTGCAG,17300 fluorescence intensity (a.u.)
9,TTATTTGATCATGTTCTAGATCTTAACTACTAATCTGACTCGGAGTCACCTAGTGCAG,3610 fluorescence intensity (a.u.)
10,CGGCTCCTGATATTGTGCTTATCGATTTGGGCTGCGTCTGCGGAGTCACCTAGTGCAG,3260 fluorescence intensity (a.u.)
11,CAAATCCAGCTCCTCCTCTTCCTCTTCCACCTCCTCCGCCCGGAGTCACCTAGTGCAG,3340 fluorescence intensity (a.u.)
12,CCCACCTGTGACTCAGCGAGCCGACTGCCACGTCAGACAACGGAGTCACCTAGTGCAG,34400 fluorescence intensity (a.u.)
13,TTTGGGTGATTATCTGATGATGCTATGGTTTGGATACAATCGGAGTCACCTAGTGCAG,4460 fluorescence intensity (a.u.)
14,ACGGGCTCACGGGCAGTGACGGCAGCATCAACCGTTACCCCGGAGTCACCTAGTGCAG,4110 fluorescence intensity (a.u.)
15,CTCTCTCTCTCTCTCTCTCTCTCTCTCTGTTTTACTACAACGGAGTCACCTAGTGCAG,3500 fluorescence intensity (a.u.)
16,CCGCCTGCCACCTCCTCGCCGCCCGTCGCGTCGACGCCTGCGGAGTCACCTAGTGCAG,4490 fluorescence intensity (a.u.)
17,TGCTGTCGATGTGCTTATCTTTCGATTTATTCCTCTCATCCGGAGTCACCTAGTGCAG,3200 fluorescence intensity (a.u.)
18,ATCCCGTTGCCGTCCTCAACACCTTCGCCGGTGTCGAAACCGGAGTCACCTAGTGCAG,4660 fluorescence intensity (a.u.)
19,TTACACCCCACTTACACATCACTTACATATGTAATTAATACGGAGTCACCTAGTGCAG,3420 fluorescence intensity (a.u.)
20,GGCTAGCGTGGGCTCCACGTGCGCTGGTTATGCATGTAGCCGGAGTCACCTAGTGCAG,9540 fluorescence intensity (a.u.)
21,TTGTTCTACTCCTCCTTGCTGGTGGTGATGTAGGACGGATCGGAGTCACCTAGTGCAG,3230 fluorescence intensity (a.u.)

# Fetched one by one from the list above:
row,Sequence,binding signal
12,CCCACCTGTGACTCAGCGAGCCGACTGCCACGTCAGACAACGGAGTCACCTAGTGCAG,34400 fluorescence intensity (a.u.)
11,CAAATCCAGCTCCTCCTCTTCCTCTTCCACCTCCTCCGCCCGGAGTCACCTAGTGCAG,3340 fluorescence intensity (a.u.)

# Additional entries.

row,Sequence,binding signal
1,TCTTACTCCATTTCGTAGTAGTTTGCACATCACCAAACATCGGAGTCACCTAGTGCAG,4060 fluorescence intensity (a.u.)
2,GATGGTAGGTATGCATATGACGCATATCCTACCTGACGGACGGAGTCACCTAGTGCAG,3450 fluorescence intensity (a.u.)
3,ACTCGAAGCGTCGGTCTGCCCTGCAACCAGCTGACGTCAGCGGAGTCACCTAGTGCAG,20800 fluorescence intensity (a.u.)
4,ATTATCAAATTTCTCGTGCATATGTCACTCGTATTTGTTGCGGAGTCACCTAGTGCAG,4990 fluorescence intensity (a.u.)
5,CCATGCTGTCAAATCAGCAACTAACGAGGCATAATCTCGACGGAGTCACCTAGTGCAG,38500 fluorescence intensity (a.u.)
6,AAATAAGAGTCACAAGAGAAGGCAGACTGAGCTCACAGAACGGAGTCACCTAGTGCAG,30900 fluorescence intensity (a.u.)
7,GTTGAATTACCTTAGCGTATATGGAAGCAACCTGTGTACGCGGAGTCACCTAGTGCAG,34700 fluorescence intensity (a.u.)
8,CGTCCACCATCGCCCCGCTCGTCTCAGCCCCGTCGTCGCGCGGAGTCACCTAGTGCAG,3170 fluorescence intensity (a.u.)
9,GCAGAGGAACCTTGGTAGTAGTATTTGGTTTCTCAGAAGTCGGAGTCACCTAGTGCAG,52600 fluorescence intensity (a.u.)
10,GGAGAGCTCCGGGAAGACGCGCGCTGACGCGGCCTCCCTGCGGAGTCACCTAGTGCAG,8860 fluorescence intensity (a.u.)
11,TCCATAGGTATCTCTCCACGTCCCACTAGGTGTACAAACCCGGAGTCACCTAGTGCAG,4110 fluorescence intensity (a.u.)
12,CCCCTGTTGGCCGTCGGACACGCACGCCGCACTCGCCGCGCGGAGTCACCTAGTGCAG,6190 fluorescence intensity (a.u.)
13,AAACGAAATTATTGTATGTATTACTTCTTAATAGGTAATACGGAGTCACCTAGTGCAG,3560 fluorescence intensity (a.u.)
14,TTTGAGGTTTGGCCACGACGACGCCTGCCTATAAATACCACGGAGTCACCTAGTGCAG,4060 fluorescence intensity (a.u.)
15,TAAGCATAATTGCTCCATGATTTGGCAATGTGATGCTACACGGAGTCACCTAGTGCAG,4240 fluorescence intensity (a.u.)
16,GCTGAGATATAGTTGCCACGTAAGCGCCACGTCAATGCTACGGAGTCACCTAGTGCAG,33000 fluorescence intensity (a.u.)
17,CGCCGAGCTGCCACGCTCGCGTCGCGTCCAGATGCGCGCGCGGAGTCACCTAGTGCAG,3680 fluorescence intensity (a.u.)
18,GGGGTGACGCCAGCGGGCACGTGCCCCACACGTGCGGTCCCGGAGTCACCTAGTGCAG,4160 fluorescence intensity (a.u.)
19,CCTGGGCTGCCTGTTCATCATCACGCGTTTGATGTTCACTCGGAGTCACCTAGTGCAG,3710 fluorescence intensity (a.u.)
20,CGCTGACACTGCCGCTGGATCTCGTTTGTGCGTCTGCAATCGGAGTCACCTAGTGCAG,3850 fluorescence intensity (a.u.)
21,GGCGCGTGGGAGGACGCCAAGCCCAAGGGGCAGGGCACGTCGGAGTCACCTAGTGCAG,3140 fluorescence intensity (a.u.)

# Source: article PMC7819943, “Rice protein-binding microarrays: a tool to detect cis-acting elements near promoter regions in rice”
